Reference: article PMC3158102
These are yes or no findings as the source states them, for the method shown. Binding seen in cells or lysates may run through a third protein. A yes stands for co-enrichment or nearness to the bait. Other partners may have been found.

Sequences of proteins named here, by UniProt entry; tags and fusion partners are left off.
UniProt P25025: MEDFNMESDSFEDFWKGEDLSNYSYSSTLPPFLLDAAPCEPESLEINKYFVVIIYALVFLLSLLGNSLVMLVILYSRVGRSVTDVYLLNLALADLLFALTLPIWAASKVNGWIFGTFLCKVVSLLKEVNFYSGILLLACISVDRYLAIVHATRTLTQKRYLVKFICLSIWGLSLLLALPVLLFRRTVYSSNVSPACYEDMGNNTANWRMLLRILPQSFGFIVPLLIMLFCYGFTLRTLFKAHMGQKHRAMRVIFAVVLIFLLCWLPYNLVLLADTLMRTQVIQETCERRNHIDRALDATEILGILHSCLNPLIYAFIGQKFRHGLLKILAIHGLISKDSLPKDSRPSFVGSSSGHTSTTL

Biological target: CXCR2 stably over-expressed in differentiated HL-60 cells (UniProt P25025)
Test: affinity purification with mass spectrometry; anti-CXCR2 rabbit antibody coupled to Sepharose; lysates of differentiated HL-60 cells stably expressing CXCR2, vehicle or 100 ng/ml CXCL8 for 1 min; lysis buffer 50 mM Tris-HCl pH 7.5, 0.05% Triton X-100, 300 mM NaCl; normal rabbit IgG beads as mock, its identifications subtracted; LC/MS/MS

Binder	binding
Annexin 1 (protein, UniProt P04083 1-346) MAMVSEFLKQAWFIENEEQEYVQTVKSSKGGPGSAVSPYPTFNPSSDVAALHKAIMVKGVDEATIIDILTKRNNAQRQQIKAAYLQETGKPLDETLKKALTGHLEEVVLALLKTPAQFDADELRAAMKGLGTDEDTLIEILASRTNKEIRDINRVYREELKRDLAKDITSDTSGDFRNALLSLAKGDRSEDFGVNEDLADSDARALYEAGERRKGTDVNVFNTILTTRSYPQLRRVFQKYTKYSKHDMNKVLDLELKGDIEKCLTAIVKCATSKPAFFAEKLHQAMKGVGTRHKALIRIMVSRSEIDMNDIKAFYQKMYGISLCQAILDETKGDYEKILVALCGGN	binds
Hsp 75 (protein, UniProt Q12931 60-704) STQTAEDKEEPLHSIISSTESVQGSTSKHEFQAETKKLLDIVARSLYSEKEVFIRELISNASDALEKLRHKLVSDGQALPEMEIHLQTNAEKGTITIQDTGIGMTQEELVSNLGTIARSGSKAFLDALQNQAEASSKIIGQFGVGFYSAFMVADRVEVYSRSAAPGSLGYQWLSDGSGVFEIAEASGVRTGTKIIIHLKSDCKEFSSEARVRDVVTKYSNFVSFPLYLNGRRMNTLQAIWMMDPKDVREWQHEEFYRYVAQAHDKPRYTLHYKTDAPLNIRSIFYVPDMKPSMFDVSRELGSSVALYSRKVLIQTKATDILPKWLRFIRGVVDSEDIPLNLSRELLQESALIRKLRDVLQQRLIKFFIDQSKKDAEKYAKFFEDYGLFMREGIVTATEQEVKEDIAKLLRYESSALPSGQLTSLSEYASRMRAGTRNIYYLCAPNRHLAEHSPYYEAMKKKDTEVLFCFEQFDELTLLHLREFDKKKLISVETDIVVDHYKEEKFEDRSPAAECLSEKETEELMAWMRNVLGSRVTNVKVTLRLDTHPAMVTVLEMGAARHFLRMQQLAKTQEERAQLLQPTLEINPRHALIKKLNQLRASEPGLAQLLVDQIYENAMIAAGLVDDPRAMVGRLNELLVKALERH	binds
LIM and SH3 domain protein 1 (LASP-1) (protein, UniProt Q14847 1-261) MNPNCARCGKIVYPTEKVNCLDKFWHKACFHCETCKMTLNMKNYKGYEKKPYCNAHYPKQSFTMVADTPENLRLKQQSELQSQVRYKEEFEKNKGKGFSVVADTPELQRIKKTQDQISNIKYHEEFEKSRMGPSGGEGMEPERRDSQDGSSYRRPLEQQQPHHIPTSAPVYQQPQQQPVAQSYGGYKEPAAPVSIQRSAPGGGGKRYRAVYDYSAADEDEVSFQDGDTIVNVQQIDDGWMYGTVERTGDTGMLPANYVEAI	binds
Nipsnap homolog 1 (protein, UniProt Q9BPW8 36-284) SKDNEGSWFRSLFVHKVDPRKDAHSTLLSKKETSNLYKIQFHNVKPEYLDAYNSLTEAVLPKLHLDEDYPCSLVGNWNTWYGEQDQAVHLWRFSGGYPALMDCMNKLKNNKEYLEFRRERSQMLLSRRNQLLLEFSFWNEPQPRMGPNIYELRTYKLKPGTMIEWGNNWARAIKYRQENQEAVGGFFSQIGELYVVHHLWAYKDLQSREETRNAAWRKRGWDENVYYTVPLVRHMESRIMIPLKISPLQ	binds

Continued, values first:

binding	Binder
binds	Secretory carrier membrane protein 2 (SCAMP2) (protein, UniProt O15127 1-329) MSAFDTNPFADPVDVNPFQDPSVTQLTNAPQGGLAEFNPFSETNAATTVPVTQLPGSSQPAVLQPSVEPTQPTPQAVVSAAQAGLLRQQEELDRKAAELERKERELQNTVANLHVRQNNWPPLPSWCPVKPCFYQDFSTEIPADYQRICKMLYYLWMLHSVTLFLNLLACLAWFSGNSSKGVDFGLSILWFLIFTPCAFLCWYRPIYKAFRSDNSFSFFVFFFVFFCQIGIYIIQLVGIPGLGDSGWIAALSTLDNHSLAISVIMMVVAGFFTLCAVLSVFLLQRVHSLYRRTGASFQQAQEEFSQGIFSSRTFHRAASSAAQGAFQGN
binds	14-3-3 gamma (protein, UniProt P61981 1-247) MVDREQLVQKARLAEQAERYDDMAAAMKNVTELNEPLSNEERNLLSVAYKNVVGARRSSWRVISSIEQKTSADGNEKKIEMVRAYREKIEKELEAVCQDVLSLLDNYLIKNCSETQYESKVFYLKMKGDYYRYLAEVATGEKRATVVESSEKAYSEAHEISKEHMQPTHPIRLGLALNYSVFYYEIQNAPEQACHLAKTAFDDAIAELDTLNEDSYKDSTLIMQLLRDNLTLWTSDQQDDDGGEGNN
